From patent US20220041582A1, “ISOXAZOLINE COMPOUNDS FOR CONTROLLING INVERTEBRATE PESTS” (FMC Corporation, priority 2018, published 2022)
Some results were stated once for a whole list of compounds, not compound by compound.

Experiments:
Format in all cases: in vivo
[1] = tested on: diamondback moth (Plutella xylostella (L.)); assay: Test A: control of diamondback moth on mustard plant, foliar spray; conditions: 6 days, 40% or less feeding damage and/or 100% mortality
[2] = tested on: fall armyworm (Spodoptera frugiperda (J. E. Smith)); assay: Test B: control of fall armyworm on corn plant, foliar spray; conditions: 6 days, 40% or less feeding damage and/or 100% mortality
[3] = tested on: cotton melon aphid (Aphis gossypii (Glover)); assay: Test F: control of cotton melon aphid through contact and/or systemic means; conditions: 50 ppm spray; 6 days
Procedure: (§1) Formulation and Spray Methodology for Tests A-H
(§2) Test compounds were formulated using a solution containing 10% acetone, 90% water and 300 ppm Activator 90® non-ionic surfactant (Loveland Products, Loveland, Colo., USA). The formulated compounds were applied in 1 mL of liquid through an atomizer nozzle positioned 1.27 cm (0.5 inches) above the top of each test unit. Test compounds were sprayed at the rates indicated, and each test was replicated three times.
[…] This was pre-infested with 30-40 insects on a piece of leaf according to the cut-leaf method, and the soil of the test unit was covered with a layer of sand.
Test compounds were formulated and sprayed at 250, 50 and 10 ppm. After spraying, the test units were maintained in a growth chamber for 6 days at 19° C. and 70% relative humidity. Each test unit was then visually assessed for insect mortality.

[4] = tested on: sweetpotato whitefly (Bemisia tabaci (Gennadius)); assay: Test G: control of sweetpotato whitefly through contact and/or systemic means; conditions: 13 days
Procedure: as §1, §2
For evaluating control of the sweetpotato whitefly (Bemisia tabaci (Gennadius)) through contact and/or systemic means, the test unit consisted of a small open container with a 12-14-day-old cotton plant inside. Prior to the spray application, both cotyledons were removed from the plant, leaving one true leaf for the assay. Adult whiteflies were allowed to lay eggs on the plant and then were removed from the test unit. Cotton plants infested with at least 15 eggs were submitted to the test for spraying.
Test compounds were formulated and sprayed at 250, 50 and 10 ppm. After spraying, the test units were allowed to dry for 1 hour. The cylinders were then removed, and the units were taken to a growth chamber and held for 13 days at 28° C. and 50-70% relative humidity. Each test unit was then visually assessed for insect mortality.

[5] = tested on: Western Flower Thrips (Frankliniellla occidentalis (Pergande)); assay: Test H: control of Western Flower Thrips through contact and/or systemic means; conditions: 6 days, 30% or less plant damage and/or 100% mortality
[6] = tested on: potato leafhopper (Empoasca fabae (Harris)); assay: Test D: control of potato leafhopper through contact and/or systemic means; conditions: 50 ppm spray; 6 days
Procedure: as §1, §2
[…] White sand was added to the top of the soil, and one of the primary leaves was excised prior to application of the test compound.
Test compounds were formulated and sprayed at 250, 50 and 10 ppm. After spraying of the formulated test compound, the test units were allowed to dry for 1 hour before they were post-infested with 5 potato leafhoppers (18-to-21-day-old adults). A black, screened cap was placed on the top of the test unit, and the test units were held for 6 days in a growth chamber at 20° C. and 70% relative humidity. Each test unit was then visually assessed for insect mortality.

[7] = tested on: green peach aphid (Myzus persicae (Sulzer)); assay: Test E: control of green peach aphid through contact and/or systemic means; conditions: 6 days
Procedure: as §1, §2
For evaluating control of green peach aphid (Myzus persicae (Sulzer)) through contact and/or systemic means, the test unit consisted of a small open container with a 12-15-day-old radish plant inside. This was pre-infested by placing on a leaf of the test plant 30-40 aphids on a piece of leaf excised from a culture plant (cut-leaf method). The aphids moved onto the test plant as the leaf piece desiccated. After pre-infestation, the soil of the test unit was covered with a layer of sand.
Test compounds were formulated and sprayed at 250, 50 and 10 ppm. After spraying of the formulated test compound, each test unit was allowed to dry for 1 hour and then a black, screened cap was placed on top. The test units were held for 6 days in a growth chamber at 19-21° C. and 50-70% relative humidity. Each test unit was then visually assessed for insect mortality.

Row | SMILES | control efficacy: feeding damage (and/or 100% mortality) ([1]; 0.4 ppm spray) | control efficacy: feeding damage (and/or 100% mortality) ([1]; 2 ppm spray) | control efficacy: feeding damage (and/or 100% mortality) ([1]; 10 ppm spray) | control efficacy: feeding damage (and/or 100% mortality) ([2]; 2 ppm spray) | control efficacy: feeding damage (and/or 100% mortality) ([2]; 10 ppm spray) | mortality [3] | mortality ([4]; 10 ppm spray) | mortality ([4]; 50 ppm spray) | control efficacy: plant damage (and/or 100% mortality) ([5]; 0.4 ppm spray) | control efficacy: plant damage (and/or 100% mortality) ([5]; 2 ppm spray) | control efficacy: plant damage (and/or 100% mortality) ([5]; 10 ppm spray) | mortality [6] | mortality ([7]; 10 ppm spray) | mortality ([7]; 50 ppm spray) | control efficacy: feeding damage (and/or 100% mortality) ([2]; 0.4 ppm spray)
1 | COCCNC(=O)c1ccc(C2=NOC(c3cc(Cl)c(F)c(Cl)c3)(C(F)(F)F)C2)c2ccncc12 (centres unmarked) [Compound 44] | ≤ 40% | ≤ 40% | ≤ 40% | ≤ 40% | ≤ 40% | at least 80% | at least 50% | at least 50% | ≤ 30% | ≤ 30% | ≤ 30% | – | – | – | –
2 | C=CCNC(=O)c1ccc(C2=NOC(c3cc(Cl)c(F)c(Cl)c3)(C(F)(F)F)C2)c2ccncc12 (centres unmarked) [Compound 45] | ≤ 40% | ≤ 40% | ≤ 40% | ≤ 40% | ≤ 40% | at least 80% | – | – | ≤ 30% | ≤ 30% | ≤ 30% | at least 80% | at least 80% | at least 80% | –
3 | CC(C)CNC(=O)c1ccc(C2=NOC(c3cc(Cl)c(F)c(Cl)c3)(C(F)(F)F)C2)c2ccncc12 (centres unmarked) [Compound 47] | ≤ 40% | ≤ 40% | ≤ 40% | ≤ 40% | ≤ 40% | – | at least 50% | at least 50% | ≤ 30% | ≤ 30% | ≤ 30% | – | – | – | ≤ 40%
4 | CC(C#N)NC(=O)c1ccc(C2=NOC(c3cc(Cl)c(F)c(Cl)c3)(C(F)(F)F)C2)c2ccncc12 (centres unmarked) [Compound 49] | ≤ 40% | ≤ 40% | ≤ 40% | – | ≤ 40% | – | – | – | – | ≤ 30% | ≤ 30% | at least 80% | – | – | –
5 | N#CC(NC(=O)c1ccc(C2=NOC(c3cccc(C(F)(F)F)c3)(C(F)(F)F)C2)c2ccncc12)C1CC1 (centres unmarked) [Compound 53] | ≤ 40% | ≤ 40% | ≤ 40% | ≤ 40% | ≤ 40% | at least 80% | at least 50% | at least 50% | ≤ 30% | ≤ 30% | ≤ 30% | at least 80% | – | at least 80% | –
6 | CCNC(=O)c1ccc(C2=NOC(c3ccc(F)c(C(F)(F)F)c3)(C(F)(F)F)C2)c2ccncc12 (centres unmarked) [Compound 60] | ≤ 40% | ≤ 40% | – | ≤ 40% | – | at least 80% | – | – | ≤ 30% | ≤ 30% | – | – | – | at least 80% | ≤ 40%
